Read-outs that look alike come from different tables or passages of the source.
Tested on: MV4-11 subcutaneous tumor
Details: t-test vs control group
Description: During drug administration, measuring the weight and gross tumor volume of the mice per 2 days and keeping a record. The calculation formula is as V=π/6×A^2×B, where, where, V=gross tumor volume (mm^3), A=tumor width (mm) and B=tumor length (mm). Observing and keeping a record for the survival condition of the tested animals. After drug discontinuance, killing the mice through cervical dislocation and peeling off their tumors as per the operation specification of animal experiment. Evaluating the inhibition capability of the compounds to tumor activities by calculating the tumor inhibitory rate with the formula as: tumor inhibitory rate=(1−tumor weight of treatment group/tumor weight of control group)×100%. Analyzing and comparing the difference between each treatment group and control group with the method of t-test. The grading of significance level of difference is: ***, P<0.001; **, P<0.01; *, P<0.05; no statistical significance (ns), P>0.05.

SMILES | Statistic difference (10 mg/kg i.v.) | Statistic difference (50 mg/kg i.p.)
COc1ccc(-c2nc(N3CCOCC3)c3nc(CN(C)c4ncc(C(=O)NO)cn4)n(C)c3n2)cn1 [CLJ-1, 2-(((2-(6-methoxypyridine-3-yl)-9-methyl-6-morpholine-9H-purine-8-yl))methyl(methyl)amino)-N-hydroxyl pyrimidine-5-formamide] | *** (***, P<0.001) | 
CN(Cc1nc2c(N3CCOCC3)nc(-c3cnc(N)nc3)nc2n1C)c1ncc(C(=O)NO)cn1 [CLJ-11, 2-(((2-(2-aminopyrimidine-5-yl)-9-methyl-6-morpholine-9H-purine-8-yl))methyl(methyl)amino)-N-hydroxyl pyrimidine-5-formamide] | ** (**, P<0.01) | 
COc1ccc(-c2nc(N3CCOCC3)c3nc(CN(C)c4ncc(C(=O)NO)cn4)n(C)c3n2)cc1 [CLJ-29, 2-(((2-(4-methoxyphenyl)-9-methyl-6-morpholine-9H-purine-8-yl))methyl(methyl)amino)-N-hydroxyl pyrimidine-5-formamide] | *** (***, P<0.001) | 
CN(Cc1nc2c(N3CCOCC3)nc(-c3ccc(N)cc3)nc2n1C)c1ncc(C(=O)NO)cn1 [CLJ-44] | *** (***, P<0.001) | 
O=C(CCCCCCC(=O)Nc1ccccc1)NO [SAHA, vorinostat, reference compound] |  | ns (no statistical significance (ns), P>0.05)

Source: patent US10227347B2, “Purinyl-N-hydroxyl pyrimidine formamide derivative, preparation methods and uses thereof” (Guizhou Bailing Group Pharmaceutical CO., LTD., priority 2015, dated 2019)
